Reference: publication PMC12510028, “A biophysical and molecular characterization of the interaction between the Alzheimer risk factor BIN1 and the neuronal scaffold protein p140Cap” (The Journal of Biological Chemistry, 2025)
These are yes or no findings as the source states them, for the method shown. Binding seen in cells or lysates may run through a third protein. Binding can be weak; no strength is given.

Experiments:
[1] = target: GST-tagged BIN1-SH3 domain MutA (D23N/D25N/E26Q) (human); assay: pull-down; 25 μg GST or GST-BSH3 (WT or mutant) on glutathione-Sepharose with 0.5 mg of 1% Triton X-100 soluble mouse brain homogenate, 2 h at room temperature; washes with 50 mM KCl, 150 mM NaCl, 1.5% IGEPAL; immunoblot for p140Cap and total tau; only the target purified
[2] = target: GST-tagged BIN1-SH3 domain MutB (E44Q/E45Q/D47N/E48Q) (human); assay: as above

- binding [1]: binds
- binding [2]: binds
B1: p140Cap from mouse brain (protein, UniProt Q9QWI6 1-1250)
chain: MQPWQCLRRFALAWWERTAEGRARSPREEVGPRDPGGRGEPDPERSSPPMLSADDAEYPREYRTLGGGGGGGSGGRRFSNVGLVHTSERRHTVIAAQSLEALSGLQKADADRKRDAFMDHLKSKYPQHALALRGQQDRMREQVGGWTVDPVCLLSSLCSHLHGDSTPSGAGQPAQQPNYWSFKTRSSRHTQGAQPGLADQAAKLSYASAESLETMSEAELPLGFSRMNRFRQSLPLSRSASQTKLRSPGVLFLQFGEETRRVHITHEVSSLDTLHALIAHMFPQKLTMGMLKSPNTAILIKDEARNVFYELEDVRDIQDRSIIKIYRKEPLYAAFPGSHLTNGDLRREMVYASRESSPTRRLNNLSPASHLASSSPPPGLPSGLPSGLPSGSPSRSRLSYAGGRPPSYAGSPVHHAAERLGGAPTGQGVSPSPSAILERRDVKPDEDLAGKAGGMVLVKGEGLYADPYGLLHEGRLSLAAAAETHSHTRARAACTSGVPCALSAPTPLPRCSPTWRTRCTRRALAALYGDGYGFRLPPSSPQKLADVSAPSGGPPPPHSPYSGPPSRGSPVRQSFRKDSGSSSVFAESPGGKARSTGSASTAGAPPSELFPGPGERSLVGFGPPVPAKDTETRERMEAMEKQIASLTGLVQSALLRGSEPETPSEKVEGSNGAATPSAPVCGSGSKSSGATPVSGPPPPSASSTPAGQPTAVSRLQMQLHLRGLQNSASDLRGQLQQLRNVQLQNQESVRALLKPTEADVSMRVSEAARRQEDPLQRQRTLVEEERLRYLNDEELITQQLNDLEKSVEKIQRDVAHNHRLMPGPELEEKALVLKQLGETLTELKAHFPGLQSKMRVVLRVEVEAVKFLKEEPQRLDGLLKRCRGVTDTLAQIRRQVDEGMWPPPNNLLNQSPKKVAAETDFSKGLDFEIPPPSPPLNLHELSGPAEGTPLTPKSTNPTKCLDASSKRNTDKAVSVEAAERDWEEKRAALTQYSAKDINRLLEETQAELLKAIPDLDCASKTHPGPAPTPDHKPPKAPHGQKAAPRTEPSGRRGSDELTVPRYRTEKPSKSPPPPPPRRSFPSSHGLTTTRTGEVVVTSKKDSVFIKKAESEELEVQKPQVKLRRAVSEVVRPASTPPIMASAIKDEDDEERIIAELESGGSSVPPMKVVTPGASRLKAAQGPAGSPDKGKHGKQRTEYMRIQAQQQATKPSKEVSGPNETSSPGSEKPSGSRTSIPVLTSFGARNSSISF
